The values that follow come from the supplement of paper PMC9744312.

Where a name gives a salt, the structure may show the parent alone. The list shows a part of the results. Single values of this set are uncertain.

The assay has as its system Peyronie's disease tunica albuginea primary fibroblasts. In words: cell viability (DRAQ5 nuclear stain) relative to TGF-beta1-only control; higher = more viable cells. The note with it: 10 µM; TGF-beta1 10 ng/mL; 72 h.
As for `CNC[C@H](O)[C@@H](O)[C@H](O)[C@H](O)CO.CNC[C@H](O)[C@@H](O)[C@H](O)[C@H](O)CO.O=C([O-])CN(CCN(CC(=O)[O-])CC(=O)O)CCN(CC(=O)[O-])CC(=O)O.[Gd+3]` [Gadopentetate Dimeglumine], the cell viability came to 87.3%.

Regarding `Nc1nc(F)nc2c1ncn2[C@@H]1O[C@H](COP(=O)(O)O)[C@@H](O)[C@@H]1O` [Fludarabine Phosphate], the cell viability came to 89.6%.

Turning to `Oc1c(Br)cc(Br)c2cccnc12` [Broxyquinoline], the cell viability amounted to 103%.

Turning to `CS(=O)(=O)c1ccc(C(=O)Nc2ccc(Cl)c(-c3ccccn3)c2)c(Cl)c1` [Vismodegib (GDC-0449)], the cell viability was 104%.

In the case of `CC(C)C[C@H](NC(=O)[C@H](Cc1ccccc1)NC(=O)c1cnccn1)B(O)O` [Bortezomib (PS-341)], the cell viability came to 31.4%.

As to `CN1CCN(C2=Nc3ccccc3Oc3ccc(Cl)cc32)CC1` [Loxapine Succinate], the cell viability is 83.4%.

Regarding `NCc1ccccc1CC(=O)N[C@@H]1C(=O)N2C(C(=O)O)=C(CSc3nnnn3CC(=O)O)CS[C@H]12` [Ceforanide], the cell viability stood at 98%.

In the case of `N=C(NCCCCCCNC(=N)NC(=N)Nc1ccc(Cl)cc1)NC(=N)Nc1ccc(Cl)cc1` [Chlorhexidine], the cell viability worked out at 69.1%.

In the case of `CCOC(=O)[C@@H](N)Cc1ccc(-c2cc(O[C@H](c3ccc(Cl)cc3-n3ccc(C)n3)C(F)(F)F)nc(N)n2)cc1` [Telotristat Etiprate (LX 1606 Hippurate)], the cell viability came to 92.4%.

In the case of `C[N+]1(C)CCC(OC(=O)C(O)(c2ccccc2)C2CCCC2)C1` (centres undefined) [Glycopyrrolate], the cell viability was 87.6%.

Regarding `N[C@@H](CCC(=O)O)C(=O)[O-].[Na+]` [L-Glutamic acid monosodium salt], the cell viability was found to be 92.6%.

As to `N#Cc1ccc(C(c2ccc(C#N)cc2)n2cncn2)cc1` [Letrozole], the cell viability was determined as 102%.

Turning to `Clc1ccc(CCC(Cn2ccnc2)Sc2c(Cl)cccc2Cl)cc1` (centres undefined) [Butoconazole nitrate], the cell viability came to 87.8%.

Turning to `Clc1ccc(CCC(Cn2ccnc2)Sc2c(Cl)cccc2Cl)cc1` (centres undefined) [Butoconazole], the cell viability came to 79.9%.

For the compound `C[C@@H]1C[C@H]2[C@@H]3C[C@H](F)C4=CC(=O)C=C[C@]4(C)[C@@]3(F)[C@@H](O)C[C@]2(C)[C@@]1(O)C(=O)CO` [Flumethasone], the cell viability was 82.6%.

For the compound `O=C(NC[C@H]1CN(c2ccc(N3CCOCC3=O)cc2)C(=O)O1)c1ccc(Cl)s1` [Rivaroxaban], the cell viability is 97.9%.

For the compound `O=C(O)c1cn(-c2ccc(F)cc2)c2cc(N3CCNCC3)c(F)cc2c1=O` [Sarafloxacin HCl], the cell viability was 90.2%.

With `Cc1nnc(C(=O)NC(C)(C)c2nc(C(=O)NCc3ccc(F)cc3)c(O)c(=O)n2C)o1` [Raltegravir (MK-0518)], the cell viability worked out at 104%.

For `Cc1nnc(C(=O)NC(C)(C)c2nc(C(=O)NCc3ccc(F)cc3)c(O)c(=O)n2C)o1` [Raltegravir potassium], the cell viability came out at 97%.

Turning to `O=C1c2c(O)cccc2Cc2cccc(O)c21` [Dithranol], the cell viability was 84.5%.

Regarding `Nc1c(CC(=O)O)cccc1C(=O)c1ccccc1` [Amfenac Sodium Monohydrate], the cell viability is 106%.

On to `CC(=O)Oc1ccccc1C(=O)Nc1ncc([N+](=O)[O-])s1` [Nitazoxanide], for which the cell viability came to 60.4%.

For the compound `CCCCC(O)c1ccccc1` (centres undefined) [Fenipentol], the cell viability came to 80.5%.

With `CCCCOCCOCCOCc1cc2c(cc1CCC)OCO2` [Piperonyl butoxide], the cell viability amounted to 87.8%.

In the case of `CCN(CC)CCOC(=O)C1(C2CCCCC2)CCCCC1` [Dicyclomine HCl], the cell viability was found to be 88.6%.

As to `NS(=O)(=O)c1cc(C2(O)NC(=O)c3ccccc32)ccc1Cl` (centres undefined) [Chlorthalidone], the cell viability stood at 88.6%.

In the case of `CCN[C@H]1CN(CCCOC)S(=O)(=O)c2sc(S(N)(=O)=O)cc21` [Brinzolamide], the cell viability stood at 95%.

Regarding `CC(C)c1c(C(=O)Nc2ccccc2)c(-c2ccccc2)c(-c2ccc(F)cc2)n1CC[C@@H](O)C[C@@H](O)CC(=O)O` [Atorvastatin Calcium], the cell viability was found to be 59%.

For `Cc1ncc(C[n+]2csc(CCO)c2C)c(N)n1` [Thiamine HCl (Vitamin B1)], the cell viability was found to be 83.5%.

Take `CC(=O)OCC(=O)[C@@]1(O)CC[C@H]2[C@@H]3CCC4=CC(=O)CC[C@]4(C)[C@H]3[C@@H](O)C[C@@]21C` [Hydrocortisone acetate]: the cell viability stood at 80.4%.

With `FC(F)(F)C(Cl)Br` (centres undefined) [Halothane], the cell viability amounted to 88.5%.

`Cc1ccc(C(=O)c2ccc(CC(=O)O)n2C)cc1` [Tolmetin Sodium]: the cell viability stood at 98%.

For `Cc1ccc(C(=O)c2ccc(CC(=O)O)n2C)cc1` [Tolmetin], the cell viability is 90.5%.

Regarding `O=C(O)CCCCCCCC(=O)O` [Azelaic acid], the cell viability was determined as 81.3%.

On to `CC(=O)OCC(=O)[C@@]1(O)CC[C@H]2[C@@H]3CCC4=CC(=O)CC[C@]4(C)[C@@]3(F)[C@@H](O)C[C@@]21C` [Fludrocortisone acetate], for which the cell viability turned out to be 86%.

Take `OCCN1CCN(CC/C=C2/c3ccccc3Sc3ccc(C(F)(F)F)cc32)CC1` [Flupenthixol dihydrochloride]: the cell viability is 79.3%.

For the compound `C[C@@H](O)[C@H]1C(=O)N2C(C(=O)O)=C([C@H]3CCCO3)S[C@H]12` [Faropenem Sodium], the cell viability is 94.3%.

Regarding `Cc1cn[nH]c1` [Fomepizole], the cell viability is 94.8%.

Take `OC(Cn1cncn1)(Cn1cncn1)c1ccc(F)cc1F` [Fluconazole]: the cell viability is 87.3%.

On to `NCCc1c[nH]cn1` [Histamine], for which the cell viability is 91.9%.

As to `NCCc1c[nH]cn1` [Histamine 2HCl], the cell viability came out at 98.3%.

For the compound `NCCc1c[nH]cn1` [Histamine Phosphate], the cell viability worked out at 93.9%.

Take `N=C1CCCN1Cc1[nH]c(=O)[nH]c(=O)c1Cl` [Tipiracil hydrochloride]: the cell viability was determined as 95.9%.

For the compound `Nc1[nH]cnc2ncnc1-2` [Adenine sulfate], the cell viability worked out at 104%.

As for `Nc1[nH]cnc2ncnc1-2` [Adenine HCl], the cell viability worked out at 91.3%.

On to `C[C@@H](NCCCc1cccc(C(F)(F)F)c1)c1cccc2ccccc12` [Cinacalcet HCl], for which the cell viability is 80%.

Turning to `CC(=O)Nc1cccc(-n2c(=O)n(C3CC3)c(=O)c3c(Nc4ccc(I)cc4F)n(C)c(=O)c(C)c32)c1`, the cell viability came to 59.3%.

For `CN1CCC(=C2c3ccccc3C=Cc3ccccc32)CC1` [Cyproheptadine HCl], the cell viability was determined as 75.9%.

For the compound `CN1CCC(=C2c3ccccc3C=Cc3ccccc32)CC1` [Cyproheptadine hydrochloride], the cell viability was 73%.
